In PMC6615643 one finds binding data, which are given here for 3 molecules.

Chains of the proteins cited; added tags and fusions are not shown.
UniProt Q9Y5X1: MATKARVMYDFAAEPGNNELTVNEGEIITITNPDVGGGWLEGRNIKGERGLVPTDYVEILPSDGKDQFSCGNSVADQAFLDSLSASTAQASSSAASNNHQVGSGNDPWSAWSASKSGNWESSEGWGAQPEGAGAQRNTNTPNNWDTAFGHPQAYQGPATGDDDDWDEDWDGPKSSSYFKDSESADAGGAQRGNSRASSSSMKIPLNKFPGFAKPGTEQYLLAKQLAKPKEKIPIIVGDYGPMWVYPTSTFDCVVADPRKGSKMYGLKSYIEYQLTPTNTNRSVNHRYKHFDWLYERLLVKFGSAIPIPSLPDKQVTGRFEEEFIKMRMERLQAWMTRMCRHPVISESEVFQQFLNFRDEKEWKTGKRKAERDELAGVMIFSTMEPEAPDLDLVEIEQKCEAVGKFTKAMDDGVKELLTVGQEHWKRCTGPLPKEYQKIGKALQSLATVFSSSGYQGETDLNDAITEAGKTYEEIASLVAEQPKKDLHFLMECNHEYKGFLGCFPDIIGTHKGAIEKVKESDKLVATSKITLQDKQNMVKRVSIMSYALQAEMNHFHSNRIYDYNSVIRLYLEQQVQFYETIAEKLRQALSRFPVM

Results are given in words; binding and its absence hold for the method and conditions named. Binding seen in cells or lysates may run through a third protein. Some entries that bind do so weakly or less than the wild type.

B1: SNX18 (protein, UniProt Q96RF0 1-628)
chain: MALRARALYDFRSENPGEISLREHEVLSLCSEQDIEGWLEGVNSRGDRGLFPASYVQVIRAPEPGPAGDGGPGAPARYANVPPGGFEPLPVAPPASFKPPPDAFQALLQPQQAPPPSTFQPPGAGFPYGGGALQPSPQQLYGGYQASQGSDDDWDDEWDDSSTVADEPGALGSGAYPDLDGSSSAGVGAAGRYRLSTRSDLSLGSRGGSVPPQHHPSGPKSSATVSRNLNRFSTFVKSGGEAFVLGEASGFVKDGDKLCVVLGPYGPEWQENPYPFQCTIDDPTKQTKFKGMKSYISYKLVPTHTQVPVHRRYKHFDWLYARLAEKFPVISVPHLPEKQATGRFEEDFISKRRKGLIWWMNHMASHPVLAQCDVFQHFLTCPSSTDEKAWKQGKRKAEKDEMVGANFFLTLSTPPAAALDLQEVESKIDGFKCFTKKMDDSALQLNHTANEFARKQVTGFKKEYQKVGQSFRGLSQAFELDQQAFSVGLNQAIAFTGDAYDAIGELFAEQPRQDLDPVMDLLALYQGHLANFPDIIHVQKGKAWPLEQVIWSVLCRLKGATLTAVPLWVSESYSTGEEASRDVDAWVFSLECKLDCSTGSFLLEYLALGNEYSFSKVQRVPLMTVLSF
B2: SNX33 (protein, UniProt Q8WV41 1-574)
chain: MALKGRALYDFHSENKEEISIQQDEDLVIFSETSLDGWLQGQNSRGETGLFPASYVEIVRSGISTNHADYSSSPAGSPGAQVSLYNSPSVASPARSGGGSGFLSNQGSFEEDDDDDWDDWDDGCTVVEEPRAGGLGTNGHPPLNLSYPGAYPSQHMAFRPKPPLERQDSLASAKRGSVVGRNLNRFSCFVRSGVEAFILGDVPMMAKIAETYSIEMGPRGPQWKANPHPFACSVEDPTKQTKFKGIKSYISYKLTPTHAASPVYRRYKHFDWLYNRLLHKFTVISVPHLPEKQATGRFEEDFIEKRKRRLILWMDHMTSHPVLSQYEGFQHFLSCLDDKQWKMGKRRAEKDEMVGASFLLTFQIPTEHQDLQDVEDRVDTFKAFSKKMDDSVLQLSTVASELVRKHVGGFRKEFQKLGSAFQAISHSFQMDPPFCSEALNSAISHTGRTYEAIGEMFAEQPKNDLFQMLDTLSLYQGLLSNFPDIIHLQKGAFAKVKESQRMSDEGRMVQDEADGIRRRCRVVGFALQAEMNHFHQRRELDFKHMMQNYLRQQILFYQRVGQQLEKTLRMYDNL

The target in the test is EspF, Flag-tagged, translocated into HeLa cells from EPEC-espF+EspF (enteropathogenic Escherichia coli O127:H6 E2348/69) (UniProt B7UM88). Briefly: co-IP; HeLa cells infected with EPEC-espF, espF+EspF, espF+EspF mod-wt or espF+EspF mod-RD; EspF immunoprecipitated with anti-FLAG antibodies; SNX proteins detected by SDS-PAGE and Western blotting. On the technique in general: Immunoblotting shows a protein as a band on a membrane.
Turning to “sorting nexin 9 (SNX9) (from UniProt Q9Y5X1 1-595)”, the binding entry is “binds”.
Turning to B1, the binding result is on record as “binds”.
In the case of B2, the binding entry was “binds”.
